Assay [1] addresses T1, GSDMD_(Δ184-194/Δ247-272) (human, UniProt P57764, Δ184-194 | Δ247-272).
T1 construct: human Gasdermin D 1-484 with residues 184-194 (in the NTD) and 247-272 (linker between the domains) deleted; also called GSDMD crystallization construct; source: E. coli Rosetta (DE3), purified (Ni-NTA, ULP1 cleavage, second Ni-NTA, SEC); not shown: His6, N-terminal, cleaved; SUMO, N-terminal, cleaved
Description: SEC-MALS; GSDMD_(Δ184-194/Δ247-272) mixed with VHH GSDMD-2, VHH GSDMD-6 or both at equimolar concentrations (189 µM); Superose 6 10/300 GL in GSDMD-SEC buffer; both purified. On the technique in general: In gel filtration, larger molecules generally elute earlier.

Assay [2] has as its target T1, GSDMD_(Δ184-194/Δ247-272). Description: crystal structure; GSDMD_(Δ184-194/Δ247-272) with VHH GSDMD-2 and VHH GSDMD-6; sitting drop, 20 mg/ml, 0.04 M NaCl, 25.8% PEG 400, 0.05 M Na3Cit pH 4.4, 20 °C; 1.9 Å; two heterotrimeric complexes in the asymmetric unit; both purified.

Results are given in words; binding and its absence hold for the method and conditions named.

B1: GSDMD_(Δ184-194/Δ247-272) (protein, UniProt P57764)
chain: MGSAFERVVRRVVQELDHGGEFIPVTSLQSSTGFQPYCLVVRKPSSSWFWKPRYKCVNLSIKDILEPDAAEPDVQRGRSFHFYDAMDGQIQGSVELAAPGQAKIAGGAAVSDSSSTSMNVYSLSVDPNTWQTLLHERHLRQPEHKVLQQLRSRGDNVYVVTEVLQTQKEVEVTRTHKREGSGREGQGHLSQKKTVTIPSGSTLAFRVAQLVIDSDLDVLLFPDKKQRTFQPPATGLTDGVPAEGAFTEDFQGLRAEVETISKELELLDRELCQLLLEGLEGVLRDQLALRALEEALEQGQSLGPVEPLDGPAGAVLECLVLSSGMLVPELAIPVVYLLGALTMLSETQHKLLAEALESQTLLGPLELVGSLLEQSAPWQERSTMSLPPGLLGNSWGEGAPAWVLLDECGLELGEDTPHVCWEPQAQGRMCALYASLALLSGLSQEPH
Turning to B1, the binding result is “no binding (tested: 189 µM)” in assay [1] and “no binding” in assay [2].

Values taken from publication PMC10692205, “Pyroptosis inhibiting nanobodies block Gasdermin D pore formation” (Nature Communications, 2023).
